Results deposited as PubChem BioAssay AID1259308 (NCATS, 2017).

Assay: 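Candidate targets for better recombinant protein yield in mammalian cells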 (primary screen)
System: human HEK293 embryonic kidney cells stably expressing firefly luciferase (HEK-CMV-Luc2-Hygro)
Reagent: single siRNA against human genes, 0.8 pmol siRNA per well
Duration: 72 h
Read-out: 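Luciferase light (ONE-Glo) measured on one replicate plate set and viability (CellTiter-Glo) on the other, scaled to a negative control siRNA, with robust z-scores and luciferase per cell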
Reading the numbers: total luciferase, z-score and total luciferase, % of control: higher = more reporter protein produced
Call rule: 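An siRNA counts as active if its total luciferase robust z-score exceeds 3; genes with two or more such siRNAs out of three were retested with fresh siRNAs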
Meaning of the calls: active = raised luciferase; inactive = no rise
This is one part, drawn at random, of about 59,000 reagents tested. About 1,510 of them (2.6%) were called active. 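Calls use total luciferase alone and ignore viability, so some active siRNAs may act by altering cell number.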 Unmarked entries are inactive. Not all columns of the deposit are shown. No sequences are given here.

With knock-down of LYNX1 (Ly6/neurotoxin 1) [SID160727936] the results were total luciferase, z-score 0.358; total luciferase, % of control 89.
With knock-down of LYNX1 (Ly6/neurotoxin 1) [SID160727937], the record shows total luciferase, z-score 0.666; total luciferase, % of control 95.1.
With knock-down of LYNX1 (Ly6/neurotoxin 1) [SID160727938], the screen gave total luciferase, z-score 0.28; total luciferase, % of control 87.5.
For SPESP1 (sperm equatorial segment protein 1) [SID160762025] the deposit lists total luciferase, z-score -0.287; total luciferase, % of control 76.2.
Silencing of SPESP1 (sperm equatorial segment protein 1) [SID160762026] gave: total luciferase, z-score -1.71; total luciferase, % of control 48.
For SPESP1 (sperm equatorial segment protein 1) [SID160762027], the values are total luciferase, z-score -0.182; total luciferase, % of control 78.3.
TSSK6 (testis specific serine kinase 6) [SID160751581] scored total luciferase, z-score -0.474; total luciferase, % of control 72.5.
TSSK6 (testis specific serine kinase 6) [SID160751582] showed total luciferase, z-score -0.767; total luciferase, % of control 66.6.
TSSK6 (testis specific serine kinase 6) [SID160751583] scored total luciferase, z-score -0.265; total luciferase, % of control 76.6.
With knock-down of CPT1C (carnitine palmitoyltransferase 1C) [SID160756408], the record shows total luciferase, z-score -0.183; total luciferase, % of control 78.3.
Silencing of CPT1C (carnitine palmitoyltransferase 1C) [SID160756409] came out at: total luciferase, z-score -0.497; total luciferase, % of control 72.
With knock-down of CPT1C (carnitine palmitoyltransferase 1C) [SID160756410], the screen gave total luciferase, z-score -1.43; total luciferase, % of control 53.5.

Just “total luciferase, % of control” (5 entries from above):
SPESP1 (sperm equatorial segment protein 1) [SID160762025]	76.2
SPESP1 (sperm equatorial segment protein 1) [SID160762026]	48
SPESP1 (sperm equatorial segment protein 1) [SID160762027]	78.3
TSSK6 (testis specific serine kinase 6) [SID160751581]	72.5
TSSK6 (testis specific serine kinase 6) [SID160751582]	66.6

Next reagents:
Knock-down of KPNA3 (karyopherin subunit alpha 3) [SID160776351] resulted in: total luciferase, z-score 0.0141; total luciferase, % of control 82.2.
KPNA3 (karyopherin subunit alpha 3) [SID160776352] scored total luciferase, z-score 0.554; total luciferase, % of control 92.9.
KPNA3 (karyopherin subunit alpha 3) [SID160776353] showed total luciferase, z-score 0.45; total luciferase, % of control 90.8.
ST18 (ST18 C2H2C-type zinc finger transcription factor) [SID160722862] scored total luciferase, z-score -0.138; total luciferase, % of control 79.1.
With knock-down of ST18 (ST18 C2H2C-type zinc finger transcription factor) [SID160722863], the screen gave total luciferase, z-score -0.971; total luciferase, % of control 62.6.
Silencing of ST18 (ST18 C2H2C-type zinc finger transcription factor) [SID160722864] came out at: total luciferase, z-score -0.415; total luciferase, % of control 73.6.
For DUT (deoxyuridine triphosphatase) [SID160757378], the values are total luciferase, z-score 0.133; total luciferase, % of control 84.5.
DUT (deoxyuridine triphosphatase) [SID160757386] gave total luciferase, z-score 0.115; total luciferase, % of control 84.2.
After knock-down of DUT (deoxyuridine triphosphatase) [SID160757397], the screen gave total luciferase, z-score -1.43; total luciferase, % of control 53.4.
With knock-down of SLC8A3 [SID160716905], the record shows total luciferase, z-score 0.497; total luciferase, % of control 91.8.
SLC8A3 [SID160716906] showed total luciferase, z-score -1.85; total luciferase, % of control 45.1.
Silencing of SLC8A3 [SID160716908] came out at: total luciferase, z-score -0.121; total luciferase, % of control 79.5.
With knock-down of LPGAT1 (lysophosphatidylglycerol acyltransferase 1) [SID160723459] the results were total luciferase, z-score -0.302; total luciferase, % of control 75.9.
Depletion of LPGAT1 (lysophosphatidylglycerol acyltransferase 1) [SID160723460] came out at: total luciferase, z-score -2.36; total luciferase, % of control 34.9.
With knock-down of LPGAT1 (lysophosphatidylglycerol acyltransferase 1) [SID160723461] the results were total luciferase, z-score -0.0286; total luciferase, % of control 81.3.
Against SENP6 (SUMO specific peptidase 6) [SID160737548] the deposit lists total luciferase, z-score -1.58; total luciferase, % of control 50.4.
Against SENP6 (SUMO specific peptidase 6) [SID160737549], the entry reads total luciferase, z-score -0.074; total luciferase, % of control 80.4.
SENP6 (SUMO specific peptidase 6) [SID160737550] showed total luciferase, z-score -1.35; total luciferase, % of control 55.
Against ZNF749 (zinc finger protein 749) [SID160765910], the values are total luciferase, z-score 0.505; total luciferase, % of control 91.9.
Knock-down of ZNF749 (zinc finger protein 749) [SID160765911] resulted in: total luciferase, z-score 0.317; total luciferase, % of control 88.2.
After knock-down of ZNF749 (zinc finger protein 749) [SID160765913], the record shows total luciferase, z-score -0.68; total luciferase, % of control 68.4.
